# Laboratory results taken from article PMC5573678.
# Results are given in words; binding and its absence hold for the method and conditions named. Binding seen in cells or lysates may run through a third protein. A result given as binding can be weak or reduced; the word gives no strength. Where a sequence is shown, tags or fusion partners need not be part of it.
# Target: endogenous STING of NR9456 macrophages (mouse (endogenous in NR9456))
# Assay: proximity ligation; Duolink in situ PLA in NR9456-IFI205myc or NR9456 cells, fixed with 4% paraformaldehyde and permeabilised with 0.5% Triton X-100; anti-myc, anti-AIM2 and anti-STING primary antibodies; also after siRNA knockdown of Trex1, Aim2 or Ifi205
binder,measurement,value
"myc-tagged IFI205 (IFI205myc), stably expressed in NR9456 macrophages (protein, UniProt Q8CGE8 1-404) MENEYKRLVLLEGLECINKHQFNLFKSLMVKDLNLEEDNQEKYTTFQIANMMVKKFPADAGLDRLINFCERVPTLKKRAEILKKERSEVTEETSLEINRQEASPATPTSTTSHMLASERGKTSTTQEETSTAQKRKGMSEEKTDVKKIKASGKADQPPCCEGPTATCQSPISQVSSSASSNIPSAKNQKSQPQNQNIPRGAVLHSEPLTVMVLTATDPFEYESPEHEVKNMFHATVATVSQYFHVKVFNIDLKEKFTKNNFITISNYFESKGILEINETSSVLEAAPKQMIEVPNCITRNANASPKICDIQKGTSGTVFYGVFTLHKKKVKTQNTSYEIKDGSGSIEVVGSGQWHNINCKEGDKLHLFCFHLKRERGQPKLVCGDHSFVKVTKAGKKKEASTVQ",binding,binds
"endogenous AIM2 of NR9456 macrophages (protein, UniProt Q91VJ1 1-354) MESEYREMLLLTGLDHITEEELKRFKYFALTEFQIARSTLDVADRTELADHLIQSAGAASAVTKAINIFQKLNYMHIANALEEKKKEAERKLMTNTKKRGTQKVENRSQAENCSAASATRSDNDFKEQAATEVCPQAKPQKKQMVAEQEAIREDLQKDPLVVTVLKAINPFECETQEGRQEIFHATVATETDFFFVKVLNAQFKDKFIPKRTIKISNYLWHSNFMEVTSSSVVVDVESNHEVPNNVVKRARETPRISKLKIQPCGTIVNGLFKVQKITEEKDRVLYGIHDKTGTMEVLVLGNPSKTKCEEGDKIRLTFFEVSKNGVKIQLKSGPCSFFKVIKAAKPKTDMKSVE",binding,binds
